Experimental data: PubChem BioAssay AID504793 (Drosophila RNAi Screening Center, 2011)
In all, the deposit lists about 23,000 reagents; this is an unselected part of those that have a named target and a result. Of all reagents, 62 (0.27%) are marked active. 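Calls come from follow-up tests whose scores are not deposited, so confirmed genes may have low counts here; counts are not normalised per plate.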 Raw values are not corrected between plates. Unmarked entries are inactive. Reagents against one gene are numbered here. A plus sign joins genes that one reagent is predicted to hit. Reagent sequences are not shown.

- Test: 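Knock-downs allowing continued mitosis even though DNA is damaged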 (primary screen)
- Cell system: Drosophila S2R+ cells
- Reagents: long dsRNA against Drosophila genes, about 0.25 µg dsRNA per well
- Timing: 4 days of dsRNA, then 4 hours of drug before read-out
- Challenge: doxorubicin 0.5 µM for 4 hours to cause double-strand breaks, in cells also given a low, harmless dose of dsRNA against nbs to sensitise the assay
- Measurement: 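Per-well count of mitotic cells stained for phospho-histone H3 after doxorubicin exposure, used as mitotic index; counts are raw and not normalised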
- Direction: mitotic cells: higher = more cells in mitosis, weaker G2 arrest
- Rule for the call: 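Genes are called active only when high mitotic counts were reproduced with independent dsRNAs and mitosis was checked for delay without damage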
- Meaning of the calls: active = confirmed in follow-up tests; inactive = not confirmed

no.	Target gene	dsRNA no.	mitotic cells, replicate 1
1	CG13775	1	4
2	CG13775	2	5
3	Mtk	1	7
4	Mtk	2	10
5	CG2811	1	6
6	CG16779	1	1
7	CenG1A	1	4
8	CenG1A	2	4
9	CenG1A	3	4
10	CenG1A	4	8
11	HP6	1	7
12	Unc-115a	1	2
13	Unc-115a	2	6
14	CG32301	1	8
15	CG42729	1	4
16	Septin5	1	4
17	Septin5	2	3
18	CG14369	1	3
19	CG14369	2	5
20	Tsen54	1	2
21	Tsen54	2	8
22	Pfdn1	1	4
23	Pfdn1	2	4
24	CG12164	1	13
25	CG12164	2	11
26	CG12164	3	6
27	schuy	1	6
28	schuy	2	7
29	CG15628	1	5
30	CG15628	2	7
31	AsnS	1	10
32	CG5516	1	4
33	CG5516	2	5
34	CG5516	3	4
35	Pde6	1	4
36	Pde6	2	8
37	Pde6	3	6
38	GluRIIC	1	8
39	CG33120	1	4
40	Naa20A	1	9
41	l(1)G0469	1	6
42	l(1)G0469	2	13
43	CG6709 + Hez	1	4
44	CG6709 + Hez	2	8
45	CG4558	1	10
